Measurements taken from PubChem BioAssay AID504834 (National Center for Advancing Translational Sciences (NCATS), 2011).
Out of some 320,000 compounds screened, about 22,000 (6.9%) were called active. This list was built around the results that the source calls inconclusive (neither active nor inactive); the mix of calls is not that of the screen. The call rests on the fitted dose curve; in most records, active means well fitted inhibition curve with a large enough effect; inconclusive means small, poorly fitted or top-dose-only effect, or another doubt; inactive means no such curve, though single readings can be large or run the other way. Potencies of inconclusive entries are doubtful fits and often do not repeat.

Test: Primary qHTS for delayed death inhibitors of the malarial parasite plastid, 96 hour incubation
Settings: P. falciparum luciferase reporter growth; series mostly up to 28.7 µM; activity change, negative = inhibition: at the top concentration
How it was run: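 Erythrocytes infected with luciferase-expressing P. falciparum were dispensed at 2% hematocrit and 0.05% parasitemia (final), then incubated with compounds 96 hours at 37 C in 5% CO2. Luminescence after detection reagent addition reported growth.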
On the % scale 0 is the no-effect control and ±100 the full control effect; potency means the concentration at half of the fitted maximal effect.

SMILES	Potency	activity change, negative = inhibition
Cc1ccc(F)cc1NC(=O)N1CCN(C2c3ccccc3-c3ccccc32)CC1	inconclusive: 14.7 µM [inhibitor, single point]	–
COc1ccc(OC)c(N(CC(=O)N2CCN(Cc3ccccc3)CC2)S(C)(=O)=O)c1	inconclusive: 18.5 µM [inhibitor, single point]	–
COc1ccc(-n2cc(-c3ccc(C)cc3)[n+]3c2SCC3)cc1	inconclusive: 0.0828 µM [inhibitor, partial curve, poor fit]	–
Nc1ncc(Br)cc1S(=O)(=O)NCCC(=O)NCCc1ccc(Cl)cc1	inconclusive: 9.28 µM [inhibitor, partial curve, poor fit]	–
O=Cc1ccc(OC2OCCOC2Oc2ccc(C=O)cc2)cc1 (stereo not drawn)	inconclusive: 7.38 µM [inhibitor, partial curve, poor fit]	–
CN1CC=C2C(C#N)=C(N)C(C#N)(C#N)[C@H](c3ccoc3)[C@H]2C1	inconclusive: 13.1 µM [inhibitor, partial curve, poor fit]	–
CC1Sc2ccc(S(=O)(=O)N3CCC(C(=O)NCCc4ccccc4)CC3)cc2NC1=O (stereo not drawn)	inconclusive: 1.85 µM [inhibitor, full curve]	–
CC1(c2cccc3ccccc23)NC(=O)N(CC(=O)NC2CCS(=O)(=O)C2)C1=O (stereo not drawn)	–	inactive: -29.6%
COc1cc([C@@H]2c3cc4c(cc3[C@@H](NC3CCN(Cc5ccccc5)CC3)[C@H]3COC(=O)[C@H]23)OCO4)cc(OC)c1O	active: 0.165 µM	–
CC(C)Oc1ccc(C(=O)Nc2ccc(Cl)c(S(=O)(=O)Nc3ccc(Cl)cc3)c2)cc1	inconclusive: 18.5 µM [inhibitor, single point]	–
CC(C)=CCN1CCN(Cc2cn[nH]c2C2CCCCC2)CC1CCO (stereo not drawn)	inconclusive: 4.15 µM [inhibitor, partial curve]	–
COc1cccc(C(=O)N2CCCc3ccccc32)c1	–	inactive: -16.4%
O=c1oc2ccccc2c(Nc2ccc(Cl)cc2)c1[N+](=O)[O-]	inconclusive: 13.1 µM [inhibitor, partial curve, poor fit]	–
Cc1cc(O)c(C(C)C)cc1Cl	active: 15.1 µM	–
CCN(CC)c1ccc(NC(=O)CSc2ccsc2[N+](=O)[O-])c(C)c1	–	inactive: 4.35%
COc1cc(/C=C/[N+](=O)[O-])ccc1O	inconclusive: 11.7 µM [inhibitor, single point]	–
CN(C)c1ccc(C2N(C(=O)N3CCOCC3)CCN2S(=O)(=O)c2ccccc2)cc1 (stereo not drawn)	inconclusive: 18.5 µM [inhibitor, single point]	–
Cc1cccc(-c2nc(CS(=O)CC(=O)N3CCN(C)CC3)c(C)o2)c1 (stereo not drawn)	active: 7.38 µM	–

Single records, from the list above:
CC(C)Oc1ccc(C(=O)Nc2ccc(Cl)c(S(=O)(=O)Nc3ccc(Cl)cc3)c2)cc1 in the list: Potency: inconclusive: 18.5 µM [inhibitor, single point]
CC1(c2cccc3ccccc23)NC(=O)N(CC(=O)NC2CCS(=O)(=O)C2)C1=O (stereo not drawn) in the list: activity change, negative = inhibition: inactive: -29.6%
